Results are given in words; binding and its absence hold for the method and conditions named. In cells and extracts the contact can be indirect. Here binding means that the protein was enriched with, or labelled near, the bait; the list need not be complete.

The chains behind the UniProt entries cited, without tags or fusion partners.
UniProt P35637: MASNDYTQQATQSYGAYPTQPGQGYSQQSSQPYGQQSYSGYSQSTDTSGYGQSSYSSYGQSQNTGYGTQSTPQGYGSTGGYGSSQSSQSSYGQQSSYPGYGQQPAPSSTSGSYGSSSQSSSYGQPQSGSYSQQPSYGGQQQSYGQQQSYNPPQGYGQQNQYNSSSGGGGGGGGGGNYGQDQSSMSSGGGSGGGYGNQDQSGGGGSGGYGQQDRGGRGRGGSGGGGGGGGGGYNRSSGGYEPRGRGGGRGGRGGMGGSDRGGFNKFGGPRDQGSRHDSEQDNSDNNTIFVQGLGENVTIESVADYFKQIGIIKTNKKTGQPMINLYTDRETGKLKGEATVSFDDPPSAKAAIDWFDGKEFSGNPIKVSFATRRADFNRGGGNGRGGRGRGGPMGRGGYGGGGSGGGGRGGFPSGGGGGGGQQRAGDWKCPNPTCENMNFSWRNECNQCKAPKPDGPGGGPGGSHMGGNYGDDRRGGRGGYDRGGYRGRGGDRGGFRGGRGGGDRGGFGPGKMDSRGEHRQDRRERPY
UniProt P51784: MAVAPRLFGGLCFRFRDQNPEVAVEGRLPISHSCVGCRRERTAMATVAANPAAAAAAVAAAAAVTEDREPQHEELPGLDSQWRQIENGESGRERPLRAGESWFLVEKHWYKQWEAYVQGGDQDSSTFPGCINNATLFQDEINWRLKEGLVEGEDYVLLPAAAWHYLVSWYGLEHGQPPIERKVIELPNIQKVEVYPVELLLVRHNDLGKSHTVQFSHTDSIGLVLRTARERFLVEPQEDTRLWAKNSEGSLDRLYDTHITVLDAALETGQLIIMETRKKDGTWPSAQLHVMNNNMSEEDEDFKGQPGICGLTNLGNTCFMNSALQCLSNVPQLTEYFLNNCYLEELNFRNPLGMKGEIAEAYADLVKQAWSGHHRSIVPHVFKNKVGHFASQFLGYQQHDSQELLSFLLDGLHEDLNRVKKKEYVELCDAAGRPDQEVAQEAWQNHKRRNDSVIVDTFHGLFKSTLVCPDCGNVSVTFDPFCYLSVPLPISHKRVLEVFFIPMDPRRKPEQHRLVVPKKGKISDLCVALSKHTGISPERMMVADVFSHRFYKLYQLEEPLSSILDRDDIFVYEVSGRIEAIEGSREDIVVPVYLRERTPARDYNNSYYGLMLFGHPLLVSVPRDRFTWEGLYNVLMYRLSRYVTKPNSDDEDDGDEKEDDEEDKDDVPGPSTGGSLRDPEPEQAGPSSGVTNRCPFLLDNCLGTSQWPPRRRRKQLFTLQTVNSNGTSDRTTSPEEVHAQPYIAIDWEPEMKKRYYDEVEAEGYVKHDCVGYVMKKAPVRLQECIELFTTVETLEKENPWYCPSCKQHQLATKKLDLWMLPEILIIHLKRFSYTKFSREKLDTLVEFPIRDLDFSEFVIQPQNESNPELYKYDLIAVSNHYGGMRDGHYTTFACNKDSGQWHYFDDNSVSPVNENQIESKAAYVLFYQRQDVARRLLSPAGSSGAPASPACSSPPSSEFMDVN

In this assay the target is T1, ubiquitin-specific protease 15 (USP15) (human (endogenous in MV4-11 and Kasumi-1)) (UniProt Q9Y4E8).
T1 sequence: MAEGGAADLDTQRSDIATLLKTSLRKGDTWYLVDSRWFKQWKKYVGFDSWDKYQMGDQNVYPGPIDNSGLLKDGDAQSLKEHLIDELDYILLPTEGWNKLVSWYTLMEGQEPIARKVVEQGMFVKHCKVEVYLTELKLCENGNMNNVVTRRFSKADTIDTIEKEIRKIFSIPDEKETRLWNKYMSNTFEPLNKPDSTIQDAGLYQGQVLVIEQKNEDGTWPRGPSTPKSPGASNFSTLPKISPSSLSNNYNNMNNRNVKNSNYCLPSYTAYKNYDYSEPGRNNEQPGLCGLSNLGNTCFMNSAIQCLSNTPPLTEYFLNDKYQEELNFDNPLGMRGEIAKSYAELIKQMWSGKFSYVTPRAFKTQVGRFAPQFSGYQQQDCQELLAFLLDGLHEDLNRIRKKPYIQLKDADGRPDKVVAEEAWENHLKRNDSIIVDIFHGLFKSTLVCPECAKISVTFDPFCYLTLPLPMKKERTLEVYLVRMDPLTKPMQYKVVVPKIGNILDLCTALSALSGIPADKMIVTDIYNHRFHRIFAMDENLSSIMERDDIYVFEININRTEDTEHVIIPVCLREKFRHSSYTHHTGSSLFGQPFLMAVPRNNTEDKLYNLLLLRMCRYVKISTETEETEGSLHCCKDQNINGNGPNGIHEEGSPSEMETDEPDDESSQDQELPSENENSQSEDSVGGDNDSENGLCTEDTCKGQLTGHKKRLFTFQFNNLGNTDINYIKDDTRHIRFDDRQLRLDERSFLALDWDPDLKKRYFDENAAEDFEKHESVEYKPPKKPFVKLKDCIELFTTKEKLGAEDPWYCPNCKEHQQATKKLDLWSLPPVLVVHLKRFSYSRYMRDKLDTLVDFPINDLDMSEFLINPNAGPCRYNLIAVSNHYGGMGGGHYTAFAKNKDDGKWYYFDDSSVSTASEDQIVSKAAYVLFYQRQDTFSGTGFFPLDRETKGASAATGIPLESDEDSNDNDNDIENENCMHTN
Nature of the assay: affinity purification with mass spectrometry; endogenous USP15 immunoprecipitated (ab71713, protein A Dynabeads) from sonicated RIPA lysates of MV4-11 and Kasumi-1 cells, untreated or treated with 30 nM MMC for 1 h; on-bead tryptic digest, label-free LC-MS/MS; compared to IgG, n = 4/condition.

As for “FUS (fused in sarcoma) (from UniProt P35637 1-526)”, the binding entry is listed as “binds”.
The entry for “USP11 (from UniProt P51784 1-963) (enzyme)” is “binds”.

B1: CHMP4B (protein, UniProt Q9H444 1-224)
chain: MSVFGKLFGAGGGKAGKGGPTPQEAIQRLRDTEEMLSKKQEFLEKKIEQELTAAKKHGTKNKRAALQALKRKKRYEKQLAQIDGTLSTIEFQREALENANTNTEVLKNMGYAAKAMKAAHDNMDIDKVDELMQDIADQQELAEEISTAISKPVGFGEEFDEDELMAELEELEQEELDKNLLEISGPETVPLPNVPSIALPSKPAKKKEEEDDDMKELENWAGSM
For B1, the binding entry is listed as “binds”.

B2: MCM5 (protein, UniProt P33992 1-734)
chain: MSGFDDPGIFYSDSFGGDAQADEGQARKSQLQRRFKEFLRQYRVGTDRTGFTFKYRDELKRHYNLGEYWIEVEMEDLASFDEDLADYLYKQPAEHLQLLEEAAKEVADEVTRPRPSGEEVLQDIQVMLKSDASPSSIRSLKSDMMSHLVKIPGIIIAASAVRAKATRISIQCRSCRNTLTNIAMRPGLEGYALPRKCNTDQAGRPKCPLDPYFIMPDKCKCVDFQTLKLQELPDAVPHGEMPRHMQLYCDRYLCDKVVPGNRVTIMGIYSIKKFGLTTSRGRDRVGVGIRSSYIRVLGIQVDTDGSGRSFAGAVSPQEEEEFRRLAALPNVYEVISKSIAPSIFGGTDMKKAIACLLFGGSRKRLPDGLTRRGDINLLMLGDPGTAKSQLLKFVEKCSPIGVYTSGKGSSAAGLTASVMRDPSSRNFIMEGGAMVLADGGVVCIDEFDKMREDDRVAIHEAMEQQTISIAKAGITTTLNSRCSVLAAANSVFGRWDETKGEDNIDFMPTILSRFDMIFIVKDEHNEERDVMLAKHVITLHVSALTQTQAVEGEIDLAKLKKFIAYCRVKCGPRLSAEAAEKLKNRYIIMRSGARQHERDSDRRSSIPITVRQLEAIVRIAEALSKMKLQPFATEADVEEALRLFQVSTLDAALSGTLSGVEGFTSQEDQEMLSRIEKQLKRRFAIGSQVSEHSIIKDFTKQKYPEHAIHKVLQLMLRRGEIQHRMQRKVLYRLK
Consider B2, for which the binding result is on record as “binds”.

B3: USP4 (enzyme, UniProt Q13107 1-963)
chain: MAEGGGCRERPDAETQKSELGPLMRTTLQRGAQWYLIDSRWFKQWKKYVGFDSWDMYNVGEHNLFPGPIDNSGLFSDPESQTLKEHLIDELDYVLVPTEAWNKLLNWYGCVEGQQPIVRKVVEHGLFVKHCKVEVYLLELKLCENSDPTNVLSCHFSKADTIATIEKEMRKLFNIPAERETRLWNKYMSNTYEQLSKLDNTVQDAGLYQGQVLVIEPQNEDGTWPRQTLQSKSSTAPSRNFTTSPKSSASPYSSVSASLIANGDSTSTCGMHSSGVSRGGSGFSASYNCQEPPSSHIQPGLCGLGNLGNTCFMNSALQCLSNTAPLTDYFLKDEYEAEINRDNPLGMKGEIAEAYAELIKQMWSGRDAHVAPRMFKTQVGRFAPQFSGYQQQDSQELLAFLLDGLHEDLNRVKKKPYLELKDANGRPDAVVAKEAWENHRLRNDSVIVDTFHGLFKSTLVCPECAKVSVTFDPFCYLTLPLPLKKDRVMEVFLVPADPHCRPTQYRVTVPLMGAVSDLCEALSRLSGIAAENMVVADVYNHRFHKIFQMDEGLNHIMPRDDIFVYEVCSTSVDGSECVTLPVYFRERKSRPSSTSSASALYGQPLLLSVPKHKLTLESLYQAVCDRISRYVKQPLPDEFGSSPLEPGACNGSRNSCEGEDEEEMEHQEEGKEQLSETEGSGEDEPGNDPSETTQKKIKGQPCPKRLFTFSLVNSYGTADINSLAADGKLLKLNSRSTLAMDWDSETRRLYYDEQESEAYEKHVSMLQPQKKKKTTVALRDCIELFTTMETLGEHDPWYCPNCKKHQQATKKFDLWSLPKILVVHLKRFSYNRYWRDKLDTVVEFPIRGLNMSEFVCNLSARPYVYDLIAVSNHYGAMGVGHYTAYAKNKLNGKWYYFDDSNVSLASEDQIVTKAAYVLFYQRRDDEFYKTPSLSSSGSSDGGTRPSSSQQGFGDDEACSMDTN
Take B3: the binding entry was “binds”.

Source of the values: PMC7788286.
